Experimental data reported in patent US20090291088A1, “THERAPEUTIC COMBINATIONS OF ANTI-IGF-1R ANTIBODIES AND OTHER COMPOUNDS” (Biogen Idec MA Inc., priority 2008, published 2009).
No constants are given. Whether binding was seen depends on the method and setting. Some entries that bind do so weakly or less than the wild type.

Amino acid sequences for entries named in this document (tags omitted). A change or cut given only in a name is not applied to a line headed by its entry.
UniProt P08069: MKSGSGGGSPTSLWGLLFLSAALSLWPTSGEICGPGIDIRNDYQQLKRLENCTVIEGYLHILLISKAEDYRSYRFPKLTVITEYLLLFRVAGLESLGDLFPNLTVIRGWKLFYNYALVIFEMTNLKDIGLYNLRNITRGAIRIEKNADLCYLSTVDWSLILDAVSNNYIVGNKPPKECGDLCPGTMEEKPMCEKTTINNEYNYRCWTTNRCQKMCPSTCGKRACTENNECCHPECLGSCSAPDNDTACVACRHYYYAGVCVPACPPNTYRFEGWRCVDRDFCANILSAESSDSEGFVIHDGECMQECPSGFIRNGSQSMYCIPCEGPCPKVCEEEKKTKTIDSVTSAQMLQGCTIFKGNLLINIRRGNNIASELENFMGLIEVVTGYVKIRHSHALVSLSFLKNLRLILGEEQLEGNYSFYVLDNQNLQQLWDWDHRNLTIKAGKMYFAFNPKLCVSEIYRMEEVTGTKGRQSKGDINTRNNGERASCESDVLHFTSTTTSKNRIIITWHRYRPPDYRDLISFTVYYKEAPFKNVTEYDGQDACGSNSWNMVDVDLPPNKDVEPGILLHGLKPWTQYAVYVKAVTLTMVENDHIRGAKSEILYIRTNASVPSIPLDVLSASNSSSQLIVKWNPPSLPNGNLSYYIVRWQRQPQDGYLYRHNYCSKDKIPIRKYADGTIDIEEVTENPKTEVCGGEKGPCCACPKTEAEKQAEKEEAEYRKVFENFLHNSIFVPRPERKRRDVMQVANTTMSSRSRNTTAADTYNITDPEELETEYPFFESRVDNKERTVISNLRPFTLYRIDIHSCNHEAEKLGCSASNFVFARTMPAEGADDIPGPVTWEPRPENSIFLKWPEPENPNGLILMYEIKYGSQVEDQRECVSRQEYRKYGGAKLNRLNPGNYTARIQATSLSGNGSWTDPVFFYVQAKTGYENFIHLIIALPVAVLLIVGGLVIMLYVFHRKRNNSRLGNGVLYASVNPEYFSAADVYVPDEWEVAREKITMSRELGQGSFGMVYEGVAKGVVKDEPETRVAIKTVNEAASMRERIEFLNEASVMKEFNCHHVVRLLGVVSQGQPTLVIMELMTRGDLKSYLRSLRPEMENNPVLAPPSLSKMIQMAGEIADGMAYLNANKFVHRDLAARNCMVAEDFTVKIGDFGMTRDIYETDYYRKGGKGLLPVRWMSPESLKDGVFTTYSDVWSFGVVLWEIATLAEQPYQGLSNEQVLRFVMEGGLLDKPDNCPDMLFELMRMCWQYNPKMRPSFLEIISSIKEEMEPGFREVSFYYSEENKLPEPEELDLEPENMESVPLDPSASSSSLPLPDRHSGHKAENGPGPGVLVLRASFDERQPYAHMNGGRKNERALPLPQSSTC

Tests used:
[1] = biological target: human IGF-1R expressed on cells (human) (UniProt P08069); assay: flow cytometry on MCF-7 cells
[2] = biological target: human IGF-1R expressed on cells (human) (UniProt P08069); assay: flow cytometry, MCF-7 and IGF-1R/3T3 cells
[3] = biological target: human IGF-1R expressed on cells (human) (UniProt P08069); assay: flow cytometry on IGF-1R/3T3 transfectants and parental 3T3 cells
[4] = biological target: hIGF-1R-Fc mutant SD019 (E739W, L741F) (human) (UniProt P08069); assay: SPR, Fab over captured mutant; NE = KD within 2.5-fold of WT hIGF-1R-Fc
[5] = biological target: IGF-1R (soluble, construct not stated) (human) (UniProt P08069); assay: ELISA, supernatant of 293E cells

B1: M14-C03.G4.P.agly (antibody, human IgG4 S228P, kappa, V domains shown)
VH: EVQLLESGGGLVQPGGSLRLSCAASGFTFSKYMMSWVRQAPGKGLEWVSYISPSGGLTWYADSVKGRFTISRDNSKNTLYLQMNSLRAEDTAVYYCARDGARGYGMDVWGQGTTVTVSS
VL: DIQMTQSPATLSLSPGERATLSCRASQSVSSYLAWYQQKPGQAPRLLIYDASNRATGIPARFSGSGSGTDFTLTISSLEPEDFAVYYCQQRSNWPPEVTFGPGTKVDIKR
binding [1]: binds
binding [2]: binds
binding [3]: binds

B2: M14-C03 Fab (Fab, V domains shown)
VH: EVQLLESGGGLVQPGGSLRLSCAASGFTFSKYMMSWVRQAPGKGLEWVSYISPSGGLTWYADSVKGRFTISRDNSKNTLYLQMNSLRAEDTAVYYCARDGARGYGMDVWGQGTTVTVSS
VL: DIQMTQSPATLSLSPGERATLSCRASQSVSSYLAWYQQKPGQAPRLLIYDASNRATGIPARFSGSGSGTDFTLTISSLEPEDFAVYYCQQRSNWPPEVTFGPGTKVDIK
binding [4]: binds

B3: M12-G04.G4.P (antibody, human IgG4, V domains shown)
VH: EVQLLESGGGLVQPGGSLRLSCAASGFTFSKYTMHWVRQAPGKGLEWVSSIVSSGGWTDYADSVKGRFTISRDNSKNTLYLQMNSLRAEDTAVYYCARDRSIAAAGTGWSVSFVDWFDPWGQGTLVTVSS
VL: DIQMTQSPLSLSASVGDRVTITCRASQSINGYLNWYQQKPGKAPNLLIYATSSLQSGVPSRFSGSGSGTDFTLTISSLQPEDFATYYCQQSYSTPPYTFGQGTKLEIK
binding [5]: binds

B4: M14-C03.G4.P (antibody, human IgG4, V domains shown)
VH: EVQLLESGGGLVQPGGSLRLSCAASGFTFSKYMMSWVRQAPGKGLEWVSYISPSGGLTWYADSVKGRFTISRDNSKNTLYLQMNSLRAEDTAVYYCARDGARGYGMDVWGQGTTVTVSS
VL: DIQMTQSPATLSLSPGERATLSCRASQSVSSYLAWYQQKPGQAPRLLIYDASNRATGIPARFSGSGSGTDFTLTISSLEPEDFAVYYCQQRSNWPPEVTFGPGTKVDIK
binding [5]: binds
